Results taken from paper PMC11616081, “Structural basis of archaeal FttA-dependent transcription termination” (Nature, 2024).

Assays:
Assay in all cases: cryo-EM structure; 4 μM Tko RNAP, 8 μM Spt4, 8 μM Spt5 and 5 μM nucleic acid scaffold (TEC[44] or TEC[52]) in 20 mM HEPES-NaOH pH 7.5, 30 mM KCl, 10 mM magnesium acetate, 1 mM dithiothreitol, 10 min at 22 °C; then FttA(H255A/H591A) added, 10 min at 22 °C and 5 min at 42 °C; CHAPSO added before freezing; single-particle reconstruction at 2.5 Å (TEC[44]) and 2.2 Å (TEC[52]); both purified
[1] = biological target: Tko RNAP subunit RpoA′ (Thermococcus kodakarensis)
[2] = biological target: Tko RNAP (Thermococcus kodakarensis)
[3] = biological target: Tko RNAP subunit RpoB (Thermococcus kodakarensis)
[4] = biological target: Tko RNAP stalk subunit RpoF (Thermococcus kodakarensis)
[5] = biological target: Tko RNAP stalk subunit RpoE (Thermococcus kodakarensis)

Row | binding [1] | binding [2] | binding [3] | binding [4] | binding [5] | Binder
1 | binds | binds | binds | – | – | Tko Spt5 (natural protein, Thermococcus kodakarensis, Spt5, Thermococcus kodakarensis; NGN domain and KOW domain; residues 1-3 not fitted in the map; Used as Spt4/5 (Spt4-Spt5 complex) in the biochemical assays; also called NusG/Spt5) MAEGKIFTVSVTVGQETTTANLIYSKAKTYNLPLYAILSPSKVKGYIFIEAPNKSAVEEAIRGIRHAKRVLPGEIPFSEIEHFLEEKPAVSGFEPGDIVELIAGPFKGEKAKVVRVDESKDEIVVELVSSVVPIPVTVRGEYVRLISKRQKE
2 | binds | binds | binds | binds | binds | Tko FttA(H255A/H591A) (enzyme, Thermococcus kodakarensis, FttA (aCPSF, aCPSF1), Thermococcus kodakarensis; domains KH1 6-75, KH2 76-144, MβLa 198-428, βCASP 433-557, MβLb 576-639; residues 1-3 of FttA^prox not fitted in the map; Dimer in the structure (protomers FttA^prox and FttA^dist); also called FttA^prox; FttA^dist) MIRRETFVDDILKEIREIIVQMVPREAGITDVEFEGPELVIYVKNPEAMMKDGELIKNLAKVLKKRISVRPDPDILLPPEKAEELIKQLVPPEAEITNISFDPSVGEVLIEARKPGLVIGKNGETLRLITQKVHWAPRVVRTPPIQSQTIYSIRSILQTESKDRRKFLRQVGRNIYRKSEYKSRWIRITGLGGFREVGRSALLVQTDESYVLVDFGVNIAALKDPTKAYPHFDAPEFRYVLDEGLLDAIIITHAALDHSGMLPYLFRYKLFDGPIYTTPPTRDLMTLLQQDFIEIQHMNGVEPLYRPKDIKEVIKHTITLDYGEVRDIAPDIRLTLHNAGHILGSSIVHLHIGNGLHNIAITGDFKFIPTRLFEPAVSRFPRLETLVMESTYGGSNDYQMPREEAEKRLIEVIHQTLKRGGKVLIPAMAVGRAQEIMMVLEEYARVGGIEVPIYLDGMIWEATAIHTAYPEYLSKHIREQIFHEGYNPFLNPIFKSVANSRERQDIIDSGEPAIIIATSGMLVGGPSVEYFKQLAPDPKNSIIFVSYQAEGTLGRQVQRGLREIPIVGEDGRTEVINVNMEVHTIDGFSGAADRRELMSYVARVRPRPERIITVHGEAHKCLDLSSSIHKKFGISTRAPNNLDAIRLK

These are yes or no findings as the source states them, for the method shown. Binding can be weak; no strength is given.
